For at least one compound, name, drawing or mass did not settle the structure.
Target: rat μ opioid receptor (inhibition of adenylyl cyclase) (Rattus norvegicus, UniProt P33535, V245I)
Test: Cyclic AMP assay in transfected CHO cells, naive or chronically morphine-treated
Conditions: naive cells, forskolin 2 μM

Sequences of proteins named here, by UniProt entry; tags and fusion partners are left off.
UniProt P33535, whole entry V245I: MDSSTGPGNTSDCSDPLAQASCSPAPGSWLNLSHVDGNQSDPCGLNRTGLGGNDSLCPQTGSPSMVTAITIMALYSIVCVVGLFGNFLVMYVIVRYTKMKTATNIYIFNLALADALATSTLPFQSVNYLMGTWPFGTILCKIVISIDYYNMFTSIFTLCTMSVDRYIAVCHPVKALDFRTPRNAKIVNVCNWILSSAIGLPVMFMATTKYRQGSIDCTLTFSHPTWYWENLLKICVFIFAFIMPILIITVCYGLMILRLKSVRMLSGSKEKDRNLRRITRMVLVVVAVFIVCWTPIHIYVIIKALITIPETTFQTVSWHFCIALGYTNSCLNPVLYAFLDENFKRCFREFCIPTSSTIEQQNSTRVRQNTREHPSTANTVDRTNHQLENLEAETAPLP

## C=C[C@@]1(C)CC(=O)[C@]2(O)[C@@]3(C)[C@@H](O)CCC(C)(C)[C@@H]3[C@H](O)[C@H](OC(C)=O)[C@@]2(C)O1 [Forskolin]
  Intracellular cAMP level, Forskolin: 35.6 ± 0.3 fmol/1 × 10^3 cells
